Source: PubChem BioAssay AID912 (NCATS, 2007).

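A cell-based FRET test of anthrax lethal toxin entry, tracked through the 460 nm emission signal; the cell line is not named here. Each compound was tested as a concentration series from about 0.0005 to 40 µM. The number is the fitted AC50 of the 460 nm signal alone; lower values mean a more potent effect. A falling signal goes with compounds filed as inhibitors or cytotoxic, a rising one with activators or fluorescent compounds (inferred from the filed classes).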

Values are in µM. Common to all entries: measured here: 460 nm channel. Part of the compounds only, not a random draw; the main read-out is not listed here. Potencies fitted to partial, single-point or poorly fitting curves are rough. The first word of each remark tells which way the curve ran; it can be opposite to the aim of the assay.

Compound,AC50 (µM),curve
COC(=O)N1CCC2(CCN(CC(C)C)CC2)CC1,5.012,"falling, single point"
Cc1ccccc1C(=O)N1CCC(C(=O)Nc2cccc(F)c2)CC1,31.62,"falling, single point"
CCOC(=O)c1sc(NC(=O)c2c(C)nn(Cc3ccccc3)c2C)cc1C,3.981,"falling, partial curve"
CCCCc1c(O)nc(N2CCN(Cc3ccccc3)CC2)[nH]c1=O,1,"falling, single point"
COc1ccc2c(c1)c(CCN1CCOCC1)c(C)n2C(=O)c1cccc(Cl)c1Cl,31.62,"falling, single point"
CCCOc1ccccc1C1CC(=O)Nc2cc3c(cc21)OCO3 (stereo not drawn),6.31,"falling, partial curve"
O=C(Nc1ccc2c(c1)OCCO2)C1CCCN(c2ncccn2)C1 (stereo not drawn),3.981,"rising, single point"
CC(C)C12CN3CC(C(C)C)(CN(C1)C3c1ccccc1O)C2=O (stereo not drawn),0.3981,"rising, full curve, poor fit"
Clc1ccc(OCc2nc(-c3ccncc3)no2)c(Br)c1,19.95,"falling, single point"
COc1cc(NC(=O)c2cc3ccccc3o2)c(OC)cc1Cl,7.943,"rising, partial curve"
O=C(Nc1cnc2ccccc2c1)C1COc2ccccc2O1 (stereo not drawn),15.85,"falling, single point"
CCN1C(=O)CC(N2CCC(C(=O)N3CCOCC3)CC2)C1=O (stereo not drawn),5.012,"falling, single point"
Fc1ccc(C(OCCN2CCN(C/C=C\c3ccccc3)CC2)c2ccc(F)cc2)cc1,12.59,"falling, partial curve"
O=C(Oc1ccccc1)N1CCC2(CCCN(c3ccncc3)C2)CC1,25.12,"falling, single point"
CCOc1cccc(C=Nc2cc(C)cc(C)c2O)c1O,31.62,"falling, single point"
COc1cccc(Nc2ncc3nc(-c4ccccc4)c(=O)n(Cc4cccs4)c3n2)c1,10,"rising, partial curve"
COC(=O)[C@@]1(Cc2ccc(F)cc2)[C@H]2c3cc(C(=O)N4CCCC4)n(CCSCCO)c3C[C@H]2CN1C(=O)c1ccccc1,10,"rising, partial curve"
COc1ccc(C(=O)C(CN2CCOCC2)c2ccccc2)cc1F (stereo not drawn),19.95,"falling, single point"
O=C(Cn1c(NCCO)nc2ccccc21)c1ccco1,5.012,"rising, single point"
FC(F)(F)C12CC(c3ccccc3)=NCCN1CCN2 (stereo not drawn),2.512,"falling, full curve, poor fit"
COc1cccc(CNC(=O)C2CCN(S(=O)(=O)N3CCCCC3)CC2)c1,0.1259,"falling, full curve, poor fit"
O=S(=O)(c1ccccc1)N1CCN(S(=O)(=O)c2ccccc2)c2ccccc21,3.162,"falling, partial curve"
CC(C)n1c(C(=O)OCC(=O)NCc2ccc3c(c2)OCO3)cc2sccc21,31.62,"falling, single point"
O=c1c(-c2ccccc2)nc2cnc(N3CCOCC3)nc2n1-c1ccccc1,10,"rising, partial curve"
COC(=O)c1[nH]c2c(c1C)C(=O)CC(c1cccs1)C2 (stereo not drawn),0.631,"falling, full curve"
Cc1ccc(S(=O)(=O)c2nc(S(C)(=O)=O)sc2N(C)C)cc1,1.995,"rising, partial curve, poor fit"
O=C(Nc1nc(-c2cc(Cl)sc2Cl)cs1)c1cccs1,3.981,"falling, partial curve"
Cn1c(=O)c2c(nc(Br)n2CCSc2nnnn2-c2ccccc2)n(C)c1=O,3.162,"falling, full curve, poor fit"
COc1ccccc1-c1nc(-c2cccc(C)c2)no1,10,"falling, partial curve"
O=c1c2cc(Cl)ccc2nc2ccc(N3CCCC3)nn12,0.7943,"rising, full curve, poor fit"
CCOC(=O)C1CCN(c2c(Nc3ccc4c(c3)OCCO4)c(=O)c2=O)CC1,7.943,"rising, partial curve"
COc1ccccc1N1CSC2=C(C#N)C(c3ccc(SC)cc3)CC(=O)N2C1 (stereo not drawn),31.62,"falling, single point"
O=C(Nc1ccc2c(c1)CCC2)c1cnn2c1NC(c1ccco1)CC2C(F)(F)F (stereo not drawn),12.59,"rising, single point"
COC(=O)c1nc(NC(=O)C(C)C)n[nH]1,10,"rising, partial curve"
CCC(c1nnnn1CCOC)N1CCN(Cc2ccccc2)CC1 (stereo not drawn),5.012,"rising, single point"
O=C1OC(NC(=O)c2ccccc2)C(n2cc(CO)nn2)=C1Cl (stereo not drawn),31.62,"falling, single point"
CCOC(=O)[C@H](N)/C=C(\C)CP(=O)(O)O,12.59,"falling, single point"
CCn1c(SCC(=O)N2CCC(C(N)=O)(N3CCCCC3)CC2)nc2ccccc2c1=O,1,"falling, partial curve"
CC(=O)c1cccc(NC(=O)C2CCCN(S(=O)(=O)c3cccc4cccnc34)C2)c1 (stereo not drawn),1.259,"falling, partial curve"
CCOC(=O)c1[nH]c(C)c(C(=O)Nc2ccc(C)c(Cl)c2)c1C,7.943,"falling, partial curve"
CCOc1ccc(-c2[nH]ncc2-c2ccc(OC)c(OC)c2)c(O)c1,0.07943,"falling, full curve"
CCN1CCN(c2cc(C)c3cc(NC(=O)Cc4ccc(OC)c(OC)c4)ccc3n2)CC1,10,"falling, partial curve"
CCN(CC)CCOCCOC(=O)C1(c2ccccc2)CCCC1,31.62,"falling, partial curve, poor fit"
C=CC(C)(C)c1[nH]c2ccccc2c1C1=C(O)C(=O)C(c2c[nH]c3c(CC=C(C)C)cccc23)=C(O)C1=O,15.85,"falling, partial curve"
CC1CCCCC12NC(=O)N(CC(=O)NCCc1ccccn1)C2=O (stereo not drawn),5.012,"rising, single point"
CCC(C)(C)NC(=O)CN(C(=O)CNS(=O)(=O)c1ccccc1)c1ccccc1,10,"rising, single point"
COC(=O)[C@@]1(Cc2ccc(OC)cc2)[C@H]2c3cc(C(=O)N(C)C)n(Cc4cc(F)c(F)c(F)c4)c3C[C@H]2CN1C(=O)c1ccccc1,2.512,"rising, partial curve, poor fit"
O=[N+]([O-])c1ccc(S(=O)(=O)Cc2ccccc2)c([N+](=O)[O-])c1,3.162,"falling, partial curve"
COc1cccc(Cn2c(=O)c(C)nc3cnc(Nc4ccccc4)nc32)c1,7.943,"rising, partial curve"
CN1CCC(=C2c3ccccc3C=Cc3ccccc32)CC1,10,"falling, partial curve"
CCc1cc(=O)oc2cc(OC(C)C(=O)O)c(Cl)cc12 (stereo not drawn),10,"rising, single point"
CC(C)C(=O)Nc1nnn(C)n1,2.512,"rising, partial curve"
CCOC(=O)N1CCN(C2=NC3(CCCCC3)C(C#N)C(=O)N2)CC1 (stereo not drawn),0.1259,"falling, full curve, poor fit"
CC(C)c1ccc(-c2nnn(Cc3nc4ccccc4s3)n2)cc1,15.85,"falling, single point"
CC1Cc2nc(SCC(=O)Nc3nccs3)n(C)c(=O)c2S1 (stereo not drawn),10,"rising, single point"
OC[C@@H]1O[C@@H](n2cnc3c(SCc4ccccc4)ncnc32)[C@@H](O)[C@H]1O,2.512,"rising, partial curve"
Cc1nn(-c2ccc(F)cc2)c2sc(C(=O)OC3CCOC3=O)cc12 (stereo not drawn),5.012,"rising, single point"

Some entries from above, unchanged:

| Compound | AC50 (µM) | curve |
|---|---|---|
| `CCC(C)(C)NC(=O)CN(C(=O)CNS(=O)(=O)c1ccccc1)c1ccccc1` | 10 | rising, single point |
| `CC(C)n1c(C(=O)OCC(=O)NCc2ccc3c(c2)OCO3)cc2sccc21` | 31.62 | falling, single point |
| `O=C(Oc1ccccc1)N1CCC2(CCCN(c3ccncc3)C2)CC1` | 25.12 | falling, single point |
| `CCCCc1c(O)nc(N2CCN(Cc3ccccc3)CC2)[nH]c1=O` | 1 | falling, single point |
| `CC(C)C(=O)Nc1nnn(C)n1` | 2.512 | rising, partial curve |
| `COc1cccc(Cn2c(=O)c(C)nc3cnc(Nc4ccccc4)nc32)c1` | 7.943 | rising, partial curve |
| `CCc1cc(=O)oc2cc(OC(C)C(=O)O)c(Cl)cc12` (stereo not drawn) | 10 | rising, single point |